Results reported in PubChem BioAssay AID540276 (National Center for Advancing Translational Sciences (NCATS), 2011).
Out of some 300,000 compounds screened, about 5,400 (1.8%) were called active. This list was built around the results that the source calls inconclusive (neither active nor inactive); the mix of calls is not that of the screen. Calls come from the whole dose curve; tested in HEK293 cells. Where the call is inconclusive, the potency comes from a doubtful curve fit.

test: qHTS for inhibitors of binding or entry into cells for Marburg Virus; settings: Marburg virus pseudotyped entry inhibition, cell reporter; activity change, negative = inhibition: at 37.8 µM (top of the series) unless noted
% is set by controls: 0 for no effect and ±100 for the full control effect; potency is the fitted concentration of half-maximal effect.

| SMILES | Potency | activity change, negative = inhibition |
| --- | --- | --- |
| O=C(NNC(=O)c1ccccc1OCc1ccc(F)cc1)c1ccccc1O | inconclusive: 6.31 µM [inhibitor, full curve, poor fit] | – |
| Cc1ccc2occ(-c3cc(-c4ccc(F)cc4)nc4c3COc3ccc(F)cc3-4)c(=O)c2c1 | inconclusive: 6.31 µM [inhibitor, single point] | – |
| CCN(CC(=O)NCc1ccc(Cl)cc1)C(=O)NCc1ccc(Cl)cc1 | inconclusive: 6.31 µM [activator, single point] | – |
| COc1ccc(OC)c(N(CC(=O)NC2CC3CCC2C3)S(=O)(=O)c2ccccc2)c1 (centres undefined) | inconclusive: 0.651 µM [inhibitor, full curve, poor fit] | – |
| Cc1ccc2c(C(=O)CN3CCCC(C)C3)c(C)[nH]c2c1 (centres undefined) | inconclusive: 35.5 µM [inhibitor, single point] | – |
| N=c1c2c3c(sc2ncn1CCCN1CCOCC1)CCCCC3 | inconclusive: 23.1 µM [inhibitor, single point] | – |
| O=c1c2ccccc2nnn1CSc1nnc(-c2ccc3c(c2)OCO3)o1 | inconclusive: 17.8 µM [inhibitor, single point] | – |
| CC(CCc1ccccc1)NC(=O)CSc1nnnn1C (centres undefined) | inconclusive: 1.46 µM [activator, partial curve, poor fit] | – |
| O=C(COC(=O)c1cc([N+](=O)[O-])ccc1N1CCOCC1)NC1CCCCC1 | inconclusive: 0.112 µM [inhibitor, full curve, poor fit] | – |
| COC(=O)c1ccc(NC(=O)CCc2c(C)nc3c(c(C)nn3C(C)(C)C)c2C)cc1 | – | inactive: -16.8% [at 46.1 µM] |
| O=C(COc1ccc(Br)cc1CNCCCN1CCOCC1)Nc1ccccc1 | inconclusive: 15.8 µM [inhibitor, partial curve, poor fit] | – |
| CCn1cc(CN2CCC(n3nccc3NC(=O)Cc3ccccc3)CC2)cn1 | – | inactive: 11.7% |
| Cc1cccc(OCCNc2cc(N3CCN(CCO)CC3)ccc2[N+](=O)[O-])c1 | inconclusive: 25.1 µM [inhibitor, single point] | – |
| Cc1ccc(OCCCCN2CCC(C)CC2)c(Br)c1 | active: 14.6 µM | – |
| COc1ccc(NC(=O)CCSc2ccc3ccccc3n2)cc1 | inconclusive: 4.11 µM [inhibitor, partial curve, poor fit] | – |
| CCOC(=O)N1CCN(C(=O)CSc2nc3ccccc3c(=O)n2-c2ccccc2)CC1 | – | inactive: -28.4% |
| Clc1ccc(CSC(Cn2ccnc2)c2ccc(Cl)cc2Cl)cc1 (centres undefined) | inconclusive: 9.2 µM [inhibitor, partial curve, poor fit] | – |
| Cc1sc2nc(COC(=O)c3ccc(O)cc3)[nH]c(=O)c2c1C | – | inactive: 11.5% [at 46.1 µM] |
| O=C(NCc1ccc(Cl)s1)c1cc(COc2c(F)cccc2F)on1 | inconclusive: 2.82 µM [inhibitor, partial curve, poor fit] | – |
| CCS(=O)(=O)c1oc(-c2ccc(F)cc2)nc1S(=O)(=O)c1ccccc1 | inconclusive: 2.51 µM [inhibitor, full curve, poor fit] | – |
| O=C(NCC(c1cccnc1)N1CCOCC1)NC1CCCCC1 (centres undefined) | – | inactive: -1.66% [at 46.1 µM] |
| Cc1ccc(C)c(N2CCN(C(=O)c3cc4c(=O)oc5ccccc5c4s3)CC2)c1 | inconclusive: 35.5 µM [activator, single point] | – |
| Cc1ccccc1OCC(=O)NCCc1nc2ccccc2[nH]1 | inconclusive: 0.794 µM [inhibitor, partial curve, poor fit] | – |

| SMILES | Potency | activity change, negative = inhibition |
| --- | --- | --- |
| CCOc1ccc(OCC)c(NC(=O)CCS(=O)(=O)c2ccc(Br)s2)c1 | – | inactive: -29.1% |
| Cc1ccc(NC(=O)c2cccc3c2C(=O)N(C2CCCCC2)C3)cc1 | – | inactive: -16% |
| COc1ccc(NC(=O)c2oc3ccccc3c2NC(=O)Cc2coc3ccc(C)cc23)cc1 | – | inactive: 2.03% [at 46.1 µM] |
| Cc1ccc(NC2=C(N3CCCCC3)C(=O)c3ccccc3C2=O)cc1 | inconclusive: 23.1 µM [inhibitor, single point] | – |
| O=C(N/N=C/c1ccco1)c1ccccc1OCc1ccccc1Cl | inconclusive: 4.61 µM [inhibitor, partial curve, poor fit] | – |
| N#CC12CCCCC1CC1CCCCC1(C#N)N2Cc1ccccn1 (centres undefined) | – | inactive: 14.9% |
| O=C(NCCc1c[nH]c2ccccc12)/C(=C\c1cccs1)NC(=O)c1ccccc1 | – | inactive: 10.1% |
| CCOC(=O)c1c(-c2ccccc2)csc1NC(=O)c1cc(S(=O)(=O)N2CCOCC2)ccc1C | inconclusive: 11.2 µM [inhibitor, single point] | – |
| Cc1ccc2nc(-c3ccc(C)o3)c(Nc3ccc4c(c3)OCCO4)n2c1 | – | inactive: -7.92% [at 46.1 µM] |
| COc1ccc(CNc2cc(C)ccn2)cc1 | inconclusive: 5.62 µM [activator, single point] | – |
| Cc1cc(NC(=O)CCN2C(=O)/C(=C/c3ccccc3Cl)SC2=S)no1 | – | inactive: -3.42% |
| Cc1n[nH]c(C)c1CCN | – | inactive: -7.44% |
| COc1ccc(/C=C(\NC(=O)c2ccccc2)C(=O)N2CCN(C)CC2)cc1OC | inconclusive: 5.62 µM [activator, single point] | – |
| O=C(NC(=O)c1cccc(F)c1)OC[C@@H]1CCCN2CCCC[C@H]12 | – | inactive: -0.811% |
| O=C(c1cnc2c(c1)COc1ccc(Cl)cc1-2)c1ccccc1O | inconclusive: 3.16 µM [inhibitor, partial curve, poor fit] | – |
| CC1=C(C(=O)N2CCOCC2)C(c2ccc(Br)cc2)NC(=S)N1c1ccccc1 (centres undefined) | – | inactive: 9.26% [at 46.1 µM] |
| O=C(CCn1nnc2ccccc21)N1CCC(O)(c2cccc(F)c2)CC1 | – | inactive: 27.8% [at 46.1 µM] |
| COC(=O)c1sc(NC(=O)COC(=O)C2CCC2)c(C(=O)OC)c1C | inconclusive: 35.5 µM [inhibitor, single point] | – |
| Clc1cccc(N/N=C/c2ccncc2)c1 | inconclusive: 5.01 µM [inhibitor, partial curve, poor fit] | – |
| Cc1c(NC(=O)c2ccc3c(c2)C(=O)N(Cc2ccco2)C3=O)cccc1C(=O)O | inconclusive: 6.31 µM [activator, partial curve, poor fit] | – |
| CC(C)Oc1ccc(C(=O)Nc2c(C(=O)Nc3cccc(F)c3)oc3ccccc23)cc1 | – | inactive: -0.0378% [at 46.1 µM] |
| COC(=O)c1[nH]c2ccccc2c1NC(=O)CNC1CCCCC1 | inconclusive: 7.3 µM [inhibitor, partial curve, poor fit] | – |
| COc1ccc(C)cc1Nc1cc(C)nc(C)n1 | – | inactive: -22% [at 46.1 µM] |

| SMILES | Potency | activity change, negative = inhibition |
| --- | --- | --- |
| CC(=O)c1ccc(N2CCN(C(=O)c3nn(Cc4ccccc4)c(=O)c4ccccc34)CC2)cc1 | inconclusive: 11.2 µM [inhibitor, partial curve, poor fit] | – |
| Cc1cc(S(=O)(=O)NCC(c2ccccc2)c2ccccc2)ccc1-n1cnnn1 | inconclusive: 16.4 µM [inhibitor, single point] | – |
| CC(C)OC(=O)Nc1ccc(Oc2c(F)c(F)c(F)c(F)c2F)cc1 | – | inactive: -21% |
| CCC(C)(C)n1nnnc1CN(Cc1ccco1)Cc1cc2cc3c(cc2[nH]c1=O)OCO3 | inconclusive: 2.82 µM [activator, single point] | – |
| CC(Nc1c([N+](=O)[O-])c(=O)oc2ccccc12)C(Cl)c1ccccc1 (centres undefined) | inconclusive: 10 µM [inhibitor, partial curve] | – |
| CCOC(=O)c1nc(Nc2ccccc2CC)c2ccccc2n1 | inconclusive: 35.5 µM [inhibitor, single point] | – |
| N=c1n(CCN2CCCCC2)c2ccccc2n1CC(=O)c1cccs1 | inconclusive: 3.98 µM [inhibitor, full curve, poor fit] | – |
| Cc1ccc(CSc2ncnc3c2cnn3Cc2ccccc2)cc1C | inconclusive: 0.366 µM [inhibitor, partial curve, poor fit] | – |
| CC(C)(C)NC(=O)NC(=O)COc1ccccc1C#N | inconclusive: 29.1 µM [inhibitor, single point] | – |
| Cc1ccnc(SCCn2c(N3CCOCC3)nc3c2c(=O)[nH]c(=O)n3C)n1 | inconclusive: 14.1 µM [activator, single point] | – |
| O=C(NC(=S)N1CCN(CCO)CC1)C12CC3CC(CC(C3)C1)C2 | inconclusive: 12.6 µM [activator, single point] | – |
| Cc1cc(C)c2nc3nc(C)c(C)cc3c(N)c2c1 | inconclusive: 7.08 µM [inhibitor, partial curve, poor fit] | – |
| O=C(CCCN1C(=O)/C(=C/c2cccs2)SC1=S)Nc1ccccn1 | – | inactive: -15% [at 46.1 µM] |
| Cc1sc2nc(SCC(=O)NCCO)n(-c3ccccc3)c(=O)c2c1C | inconclusive: 0.891 µM [activator, full curve, poor fit] | – |
| Cc1cccnc1Sc1c([N+](=O)[O-])ncn1C | – | inactive: 2.95% |
| N/C(=N\c1nc2ccccc2o1)NC(=O)C(Cc1ccccc1)N1C(=O)c2ccccc2C1=O (centres undefined) | inconclusive: 10 µM [inhibitor, partial curve, poor fit] | – |
| CC(C)=CCN1C(=O)[C@]2(O[C@H](COc3ccccc3)CC3=CCCC32)c2c(Br)cccc21 (some centres undefined) | – | inactive: -17% [at 14.2 µM] |
| Cc1ccc(NC2=NCCCS2)c(C)c1C | inconclusive: 10 µM [inhibitor, partial curve] | – |
| O=C(N/N=C/c1c(O)n(Cc2ccco2)c(=O)[nH]c1=O)c1ccccc1O | – | inactive: -2.26% [at 46.1 µM] |
| CCCCC(=O)Nc1cccc(NC(=S)NC(=O)COc2ccccc2Cl)c1 | inconclusive: 0.116 µM [inhibitor, single point] | – |
| Cc1c(Cl)cnc(NC(=O)COC(=O)c2ccc3ncsc3c2)c1Cl | – | inactive: 13.1% |
| Cc1ccc(OCC(=O)Nc2ccc(N3CCN(C(=O)c4ccco4)CC3)cc2)cc1 | inconclusive: 35.5 µM [inhibitor, single point] | – |
| CCOC(=O)N1CCC(NC(=O)c2ccc3c(c2)sc2nc(-c4ccccc4)cn23)CC1 | active: 11.2 µM | – |

Part of the list above in order of SMILES length, high to low:

| SMILES | Potency | activity change, negative = inhibition |
| --- | --- | --- |
| CC(C)=CCN1C(=O)[C@]2(O[C@H](COc3ccccc3)CC3=CCCC32)c2c(Br)cccc21 (some centres undefined) | – | inactive: -17% [at 14.2 µM] |
| CC(=O)c1ccc(N2CCN(C(=O)c3nn(Cc4ccccc4)c(=O)c4ccccc34)CC2)cc1 | inconclusive: 11.2 µM [inhibitor, partial curve, poor fit] | – |
| N/C(=N\c1nc2ccccc2o1)NC(=O)C(Cc1ccccc1)N1C(=O)c2ccccc2C1=O (centres undefined) | inconclusive: 10 µM [inhibitor, partial curve, poor fit] | – |
| CCOC(=O)N1CCC(NC(=O)c2ccc3c(c2)sc2nc(-c4ccccc4)cn23)CC1 | active: 11.2 µM | – |
| Cc1ccc(OCC(=O)Nc2ccc(N3CCN(C(=O)c4ccco4)CC3)cc2)cc1 | inconclusive: 35.5 µM [inhibitor, single point] | – |
| CC(Nc1c([N+](=O)[O-])c(=O)oc2ccccc12)C(Cl)c1ccccc1 (centres undefined) | inconclusive: 10 µM [inhibitor, partial curve] | – |
| Cc1ccnc(SCCn2c(N3CCOCC3)nc3c2c(=O)[nH]c(=O)n3C)n1 | inconclusive: 14.1 µM [activator, single point] | – |
| CCCCC(=O)Nc1cccc(NC(=S)NC(=O)COc2ccccc2Cl)c1 | inconclusive: 0.116 µM [inhibitor, single point] | – |
| O=C(CCCN1C(=O)/C(=C/c2cccs2)SC1=S)Nc1ccccn1 | – | inactive: -15% [at 46.1 µM] |
| CCOC(=O)c1nc(Nc2ccccc2CC)c2ccccc2n1 | inconclusive: 35.5 µM [inhibitor, single point] | – |
| Cc1cc(C)c2nc3nc(C)c(C)cc3c(N)c2c1 | inconclusive: 7.08 µM [inhibitor, partial curve, poor fit] | – |
| Cc1cccnc1Sc1c([N+](=O)[O-])ncn1C | – | inactive: 2.95% |
| Cc1ccc(NC2=NCCCS2)c(C)c1C | inconclusive: 10 µM [inhibitor, partial curve] | – |
